Values from PubChem BioAssay AID743121 (NCATS, 2013)

Aim: 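Genes whose silencing strengthens cell killing by camptothecin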 (primary screen)
Cells: MDA-MB-231 cells, a human breast cancer line
Reagent: single siRNA against human genes, 20 nM siRNA (0.8 pmol per well)
Timing: 120 h (drug added 48 h after transfection, read 72 h later)
Challenge: camptothecin 20 nM (about EC30) for 72 h; vehicle 0.1% DMSO in parallel plates
Measurement: 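CellTiter-Glo ATP signal, scaled to control siRNA as percent viability; sensitisation given as log2 of untreated divided by camptothecin-treated viability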
Reading the numbers: log2 vehicle/camptothecin viability: higher = stronger sensitisation to camptothecin; viability with camptothecin and viability without drug: higher = more viable cells
Call rule: 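Active genes have an RSA gene-level p-value below 0.001, computed from the ratios of their separate siRNAs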
In all, the deposit lists about 26,000 reagents; this is an unselected part. Of all reagents, 167 (0.63%) were called active. 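Calls are per gene from RSA p-values that are not deposited; an individual active-marked siRNA can sensitise only weakly.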 The numbers tell different reagents against one gene apart. Reagent sequences are not shown.

target gene | reagent no. | log2 vehicle/camptothecin viability | viability with camptothecin (% of control) | viability without drug (% of control) | Outcome
HSD17B11 | 1 | -0.169 | 87.5 | 77.9 | inactive
HSD17B11 | 2 | 0.199 | 86.7 | 99.5 | inactive
HSD17B11 | 3 | -0.0427 | 114 | 111 | inactive
HSD17B11 | 4 | -0.143 | 98.9 | 89.6 | inactive
HSD17B11 | 5 | -0.238 | 52.1 | 44.1 | inactive
HSD17B11 | 6 | 0.231 | 72.9 | 85.5 | inactive
HSD17B11 | 7 | -0.127 | 108 | 98.5 | inactive
HSD17B11 | 8 | -0.132 | 91 | 83.1 | inactive
SGCA | 1 | -0.316 | 23.4 | 18.8 | inactive
SGCA | 2 | -0.18 | 66 | 58.3 | inactive
SGCA | 3 | -0.393 | 57.2 | 43.6 | inactive
SGCA | 4 | -0.576 | 105 | 70.6 | inactive
ABAT | 1 | -0.567 | 89 | 60.1 | inactive
ABAT | 2 | -0.00199 | 68.1 | 68 | inactive
ABAT | 3 | -0.0847 | 55.2 | 52.1 | inactive
ABAT | 4 | -0.314 | 104 | 83.5 | inactive
KLK13 | 1 | -0.334 | 82 | 65 | inactive
KLK13 | 2 | -0.429 | 76.1 | 56.5 | inactive
KLK13 | 3 | 0.134 | 81.7 | 89.7 | inactive
KLK13 | 4 | -0.391 | 72.5 | 55.3 | inactive
TOMM20 | 1 | -0.161 | 82.5 | 73.8 | inactive
TOMM20 | 2 | -0.164 | 106 | 94.6 | inactive
TOMM20 | 3 | -0.708 | 111 | 67.7 | inactive
TOMM20 | 4 | -0.459 | 63.6 | 46.2 | inactive
MINDY2 | 1 | 0.329 | 37.7 | 47.4 | inactive
MINDY2 | 2 | 0.416 | 33.5 | 44.7 | inactive
MINDY2 | 3 | -0.464 | 66.1 | 47.9 | inactive
MINDY2 | 4 | -0.469 | 66.2 | 47.8 | inactive
HSD17B10 | 1 | -0.0667 | 71.8 | 68.5 | inactive
HSD17B10 | 2 | -0.0815 | 87.7 | 82.9 | inactive
HSD17B10 | 3 | -0.434 | 84.3 | 62.4 | inactive
HSD17B10 | 4 | -0.0669 | 77.6 | 74 | inactive
ADGRL1 | 1 | 0.344 | 37.9 | 48.1 | inactive
ADGRL1 | 2 | -0.204 | 69.8 | 60.6 | inactive
ADGRL1 | 3 | -0.0135 | 95.7 | 94.8 | inactive
ADGRL1 | 4 | 0.0266 | 59.4 | 60.5 | inactive
SLC25A20 | 1 | -0.0256 | 81.3 | 79.9 | inactive
SLC25A20 | 2 | -0.434 | 88.3 | 65.3 | inactive
SLC25A20 | 3 | 0.0727 | 37.8 | 39.8 | inactive
TRIM28 | 1 | -0.485 | 112 | 80.3 | inactive
TRIM28 | 2 | -0.685 | 47.8 | 29.8 | inactive
TRIM28 | 3 | -0.442 | 68.2 | 50.2 | inactive
TRIM28 | 4 | -0.584 | 91.5 | 61 | inactive
NEIL1 | 1 | 0.178 | 89 | 101 | inactive
NEIL1 | 2 | -0.00244 | 86.2 | 86 | inactive
NEIL1 | 3 | -0.124 | 73.8 | 67.7 | inactive

7 consecutive reagents from above:
target gene | reagent no. | log2 vehicle/camptothecin viability | viability with camptothecin (% of control) | viability without drug (% of control) | Outcome
TOMM20 | 4 | -0.459 | 63.6 | 46.2 | inactive
MINDY2 | 1 | 0.329 | 37.7 | 47.4 | inactive
MINDY2 | 2 | 0.416 | 33.5 | 44.7 | inactive
MINDY2 | 3 | -0.464 | 66.1 | 47.9 | inactive
MINDY2 | 4 | -0.469 | 66.2 | 47.8 | inactive
HSD17B10 | 1 | -0.0667 | 71.8 | 68.5 | inactive
HSD17B10 | 2 | -0.0815 | 87.7 | 82.9 | inactive
